Reference: publication PMC6294144
These are yes or no findings as the source states them, for the method shown. In cells and extracts the contact can be indirect. Some entries that bind do so weakly or less than the wild type.

Amino acid sequences for entries named in this document (tags omitted).
UniProt Q14457: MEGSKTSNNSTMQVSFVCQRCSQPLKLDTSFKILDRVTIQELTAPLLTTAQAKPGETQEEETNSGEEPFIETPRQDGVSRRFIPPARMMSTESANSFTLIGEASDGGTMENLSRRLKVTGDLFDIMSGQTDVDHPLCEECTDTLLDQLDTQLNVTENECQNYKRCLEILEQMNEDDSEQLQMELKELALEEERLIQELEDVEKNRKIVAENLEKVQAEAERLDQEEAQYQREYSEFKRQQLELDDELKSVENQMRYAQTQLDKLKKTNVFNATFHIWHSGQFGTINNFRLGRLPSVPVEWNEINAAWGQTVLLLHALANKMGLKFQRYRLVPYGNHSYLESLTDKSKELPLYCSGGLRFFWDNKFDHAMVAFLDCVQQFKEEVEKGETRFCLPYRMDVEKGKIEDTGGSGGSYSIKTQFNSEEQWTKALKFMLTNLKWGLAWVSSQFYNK
UniProt P10415: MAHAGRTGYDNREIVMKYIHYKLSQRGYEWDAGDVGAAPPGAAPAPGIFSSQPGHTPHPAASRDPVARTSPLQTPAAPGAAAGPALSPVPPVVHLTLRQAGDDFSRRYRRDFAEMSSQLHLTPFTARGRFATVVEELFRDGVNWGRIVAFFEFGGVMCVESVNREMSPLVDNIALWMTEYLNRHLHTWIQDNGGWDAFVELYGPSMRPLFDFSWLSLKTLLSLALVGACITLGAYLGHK

Target: Beclin1 (human (endogenous in HEK293T)) (UniProt Q14457)
Experiment: co-IP; 800 ug of whole-cell lysate of HEK293T cells incubated with anti-GIT1 or anti-Beclin1 antibody overnight at 4 °C, protein A/G Sepharose 2 h, three washes with lysis buffer, western blot; cells under basal or starvation (EBSS) conditions, with or without GIT1; IgG as control

binding: binds
Substance: Bcl2 (from UniProt P10415 1-239)
